No constants are given. Whether binding was seen depends on the method and setting. In cells and extracts the contact can be indirect. Some entries that bind do so weakly or less than the wild type.
Biological target: T1, Eukaryotic elongation factor-2 kinase (human (endogenous in A549)) (UniProt O00418)
T1 sequence: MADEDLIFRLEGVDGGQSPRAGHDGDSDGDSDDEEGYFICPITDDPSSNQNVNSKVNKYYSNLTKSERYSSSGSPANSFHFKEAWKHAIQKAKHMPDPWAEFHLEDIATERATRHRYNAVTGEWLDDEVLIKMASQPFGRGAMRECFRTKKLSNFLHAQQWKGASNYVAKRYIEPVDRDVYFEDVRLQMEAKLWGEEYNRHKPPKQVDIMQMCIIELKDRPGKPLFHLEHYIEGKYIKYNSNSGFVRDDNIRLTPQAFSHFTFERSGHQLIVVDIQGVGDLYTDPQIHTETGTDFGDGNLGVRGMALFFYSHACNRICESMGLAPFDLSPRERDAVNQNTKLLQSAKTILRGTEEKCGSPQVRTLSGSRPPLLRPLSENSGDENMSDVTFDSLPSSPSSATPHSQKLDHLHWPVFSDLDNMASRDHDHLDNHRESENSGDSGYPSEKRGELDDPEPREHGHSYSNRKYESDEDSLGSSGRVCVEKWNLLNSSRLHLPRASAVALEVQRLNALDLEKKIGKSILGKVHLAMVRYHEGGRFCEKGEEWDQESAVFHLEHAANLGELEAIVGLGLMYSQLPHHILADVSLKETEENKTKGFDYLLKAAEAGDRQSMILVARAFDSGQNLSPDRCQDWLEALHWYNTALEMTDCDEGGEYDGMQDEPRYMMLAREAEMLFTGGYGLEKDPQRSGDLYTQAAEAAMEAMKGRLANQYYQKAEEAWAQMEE
Test: co-IP; A549 cell lysates incubated overnight at 4 °C with eEF2K antibody (Santa Cruz, sc-393,366), protein A/G agarose; washed with 50 mM Tris pH 7.5, 150 mM NaCl, 1% Triton-X; immunoblot

The chains behind the UniProt entries cited, without tags or fusion partners.
UniProt P40763: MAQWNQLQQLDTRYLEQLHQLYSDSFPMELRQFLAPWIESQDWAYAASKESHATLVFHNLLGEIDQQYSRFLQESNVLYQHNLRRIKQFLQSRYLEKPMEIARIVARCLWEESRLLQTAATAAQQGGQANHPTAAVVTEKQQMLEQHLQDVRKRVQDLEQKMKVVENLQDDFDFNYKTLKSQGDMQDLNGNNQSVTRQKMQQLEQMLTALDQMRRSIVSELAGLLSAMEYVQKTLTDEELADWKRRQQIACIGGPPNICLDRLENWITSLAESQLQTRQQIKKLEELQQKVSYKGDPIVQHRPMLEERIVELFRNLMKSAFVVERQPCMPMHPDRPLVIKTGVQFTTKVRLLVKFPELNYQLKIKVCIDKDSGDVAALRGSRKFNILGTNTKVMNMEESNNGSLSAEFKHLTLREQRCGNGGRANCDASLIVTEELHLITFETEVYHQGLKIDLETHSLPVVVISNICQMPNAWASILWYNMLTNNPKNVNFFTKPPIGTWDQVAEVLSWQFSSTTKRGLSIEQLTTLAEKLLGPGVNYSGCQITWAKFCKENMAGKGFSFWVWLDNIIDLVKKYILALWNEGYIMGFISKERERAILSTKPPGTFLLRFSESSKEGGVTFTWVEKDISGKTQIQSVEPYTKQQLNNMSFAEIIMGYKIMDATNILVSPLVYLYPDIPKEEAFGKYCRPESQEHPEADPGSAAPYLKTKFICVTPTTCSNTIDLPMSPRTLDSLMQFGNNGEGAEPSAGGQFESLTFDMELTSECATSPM

binding: binds
Substance: signal transducer and activator of transcription 3 (from UniProt P40763 1-770)
